# Results of single-concentration screens

Chains of the proteins cited; added tags and fusions are not shown. Residues count along the entry.
UniProt I6X8D2, whole entry: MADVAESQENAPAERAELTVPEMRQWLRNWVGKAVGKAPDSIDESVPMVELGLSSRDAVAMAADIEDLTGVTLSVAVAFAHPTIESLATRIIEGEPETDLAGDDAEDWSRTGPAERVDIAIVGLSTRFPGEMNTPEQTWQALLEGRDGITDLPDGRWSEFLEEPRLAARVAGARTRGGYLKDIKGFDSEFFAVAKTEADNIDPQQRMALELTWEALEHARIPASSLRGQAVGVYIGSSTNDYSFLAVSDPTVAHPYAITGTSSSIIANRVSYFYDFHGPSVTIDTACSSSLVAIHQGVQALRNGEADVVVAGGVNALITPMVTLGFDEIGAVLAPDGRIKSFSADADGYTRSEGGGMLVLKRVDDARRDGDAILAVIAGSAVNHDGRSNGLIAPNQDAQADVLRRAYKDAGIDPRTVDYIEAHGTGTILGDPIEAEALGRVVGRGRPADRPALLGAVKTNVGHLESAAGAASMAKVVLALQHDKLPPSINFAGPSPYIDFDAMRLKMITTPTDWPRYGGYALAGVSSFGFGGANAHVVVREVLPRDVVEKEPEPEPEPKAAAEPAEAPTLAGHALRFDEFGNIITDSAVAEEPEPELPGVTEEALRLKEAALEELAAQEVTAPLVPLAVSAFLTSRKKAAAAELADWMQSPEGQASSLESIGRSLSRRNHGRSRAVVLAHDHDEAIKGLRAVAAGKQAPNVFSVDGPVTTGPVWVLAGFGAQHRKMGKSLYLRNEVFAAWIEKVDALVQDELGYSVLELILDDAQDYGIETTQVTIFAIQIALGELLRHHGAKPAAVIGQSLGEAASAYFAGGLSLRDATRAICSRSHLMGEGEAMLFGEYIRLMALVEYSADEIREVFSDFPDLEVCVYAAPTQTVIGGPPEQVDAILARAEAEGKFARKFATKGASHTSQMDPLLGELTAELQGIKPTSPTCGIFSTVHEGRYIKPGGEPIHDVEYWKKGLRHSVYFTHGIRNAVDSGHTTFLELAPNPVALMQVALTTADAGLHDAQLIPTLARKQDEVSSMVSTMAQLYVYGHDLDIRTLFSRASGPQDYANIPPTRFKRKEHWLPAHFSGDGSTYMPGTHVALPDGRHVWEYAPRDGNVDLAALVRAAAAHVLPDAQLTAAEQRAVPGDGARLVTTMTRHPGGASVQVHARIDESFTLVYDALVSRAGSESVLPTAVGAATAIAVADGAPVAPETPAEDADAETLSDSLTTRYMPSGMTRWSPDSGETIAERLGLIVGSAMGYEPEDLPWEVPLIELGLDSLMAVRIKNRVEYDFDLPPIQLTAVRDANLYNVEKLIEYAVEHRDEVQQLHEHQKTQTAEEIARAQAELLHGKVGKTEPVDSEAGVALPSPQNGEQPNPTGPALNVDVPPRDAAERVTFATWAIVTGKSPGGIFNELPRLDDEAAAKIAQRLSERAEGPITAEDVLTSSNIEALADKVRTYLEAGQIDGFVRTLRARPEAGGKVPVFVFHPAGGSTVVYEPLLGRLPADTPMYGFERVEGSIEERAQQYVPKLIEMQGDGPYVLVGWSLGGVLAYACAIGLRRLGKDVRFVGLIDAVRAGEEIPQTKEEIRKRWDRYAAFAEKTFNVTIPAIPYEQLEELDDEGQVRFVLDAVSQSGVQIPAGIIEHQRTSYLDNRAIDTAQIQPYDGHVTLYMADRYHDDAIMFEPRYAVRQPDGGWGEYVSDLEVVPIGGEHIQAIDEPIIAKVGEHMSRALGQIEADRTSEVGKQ
UniProt P9WNZ1, whole entry: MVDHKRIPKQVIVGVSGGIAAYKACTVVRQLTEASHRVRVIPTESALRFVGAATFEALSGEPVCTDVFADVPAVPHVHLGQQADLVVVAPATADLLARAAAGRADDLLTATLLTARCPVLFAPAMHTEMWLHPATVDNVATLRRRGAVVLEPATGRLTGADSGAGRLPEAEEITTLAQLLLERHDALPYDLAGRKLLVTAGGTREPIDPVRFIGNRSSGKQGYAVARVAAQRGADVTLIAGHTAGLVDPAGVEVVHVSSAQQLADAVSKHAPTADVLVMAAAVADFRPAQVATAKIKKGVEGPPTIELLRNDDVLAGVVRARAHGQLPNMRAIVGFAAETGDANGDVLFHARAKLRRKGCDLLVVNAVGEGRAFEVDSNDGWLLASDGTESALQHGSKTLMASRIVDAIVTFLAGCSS
UniProt Q8IDJ8, 1-583: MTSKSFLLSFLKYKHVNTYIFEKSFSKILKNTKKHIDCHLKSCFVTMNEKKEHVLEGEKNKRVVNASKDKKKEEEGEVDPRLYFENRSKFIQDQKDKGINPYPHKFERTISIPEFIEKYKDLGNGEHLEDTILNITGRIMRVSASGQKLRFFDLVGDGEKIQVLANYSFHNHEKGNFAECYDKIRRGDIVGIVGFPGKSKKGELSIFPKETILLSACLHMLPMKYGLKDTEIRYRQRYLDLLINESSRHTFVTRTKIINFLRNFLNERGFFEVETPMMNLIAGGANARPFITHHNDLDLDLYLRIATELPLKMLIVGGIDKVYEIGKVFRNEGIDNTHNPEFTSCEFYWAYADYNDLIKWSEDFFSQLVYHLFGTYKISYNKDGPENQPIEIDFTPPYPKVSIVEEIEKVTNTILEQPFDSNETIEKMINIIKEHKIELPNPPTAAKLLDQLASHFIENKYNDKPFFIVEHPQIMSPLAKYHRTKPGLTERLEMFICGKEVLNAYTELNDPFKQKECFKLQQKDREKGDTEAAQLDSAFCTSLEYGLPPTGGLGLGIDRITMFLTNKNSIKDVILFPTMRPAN
UniProt Q4DA54, 1-478: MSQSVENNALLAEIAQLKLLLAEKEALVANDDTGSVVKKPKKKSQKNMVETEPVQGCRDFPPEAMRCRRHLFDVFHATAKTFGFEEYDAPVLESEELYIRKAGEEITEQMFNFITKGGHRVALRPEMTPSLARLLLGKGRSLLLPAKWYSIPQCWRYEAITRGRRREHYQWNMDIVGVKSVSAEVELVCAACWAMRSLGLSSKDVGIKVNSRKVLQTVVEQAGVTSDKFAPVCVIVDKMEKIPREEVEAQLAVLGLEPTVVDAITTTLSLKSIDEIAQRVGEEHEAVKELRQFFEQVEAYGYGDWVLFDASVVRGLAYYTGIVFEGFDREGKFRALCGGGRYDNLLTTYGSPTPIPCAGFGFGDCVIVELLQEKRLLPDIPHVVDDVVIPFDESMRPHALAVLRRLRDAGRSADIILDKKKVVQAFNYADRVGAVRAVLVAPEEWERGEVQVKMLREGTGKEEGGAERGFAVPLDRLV

Each number is a percent effect as filed. How 0% and 100% were set is not recorded. Most values in the screen are low, and negative values occur. This is an unselected part of the compounds tested. A dash means the value is not listed here; it may have been measured.

A: 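Enzyme assay of the thioesterase domain of polyketide synthase 13; the read-out is not stated. Target: Polyketide synthase Pks13, Mycobacterium tuberculosis (UniProt I6X8D2). Concentration: 30 µM. Higher reads as stronger inhibition (inferred from which compounds were picked for retests). About 67,000 compounds were tested under these conditions; 0.46% (about 300) showed 50% or more at least once.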
B: 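Enzyme assay of CoaBC with a phosphate dye (Biomol Green) read at 650 nm. Target: Coenzyme A biosynthesis protein CoaBC, Mycobacterium tuberculosis (UniProt P9WNZ1). Compounds at 30 µM. Direction is inferred from only a few compounds that gave an IC50; most scored high, so higher reads as stronger inhibition. Most strong results did not repeat in a second test. Of about 67,000 compounds tested this way, about 40 (0.06%) reached 50% or more in at least one test.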
C: 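Enzyme assay of the cytosolic lysyl-tRNA synthetase in 384-well plates, read by luminescence. Target: Lysine-tRNA ligase, Plasmodium falciparum 3D7 (UniProt Q8IDJ8). Tested at 30 µM. Direction is inferred from only a few compounds that gave an IC50; most scored high, so higher reads as stronger inhibition. About 69,000 compounds were tested under these conditions; 0.071% (about 49) showed 50% or more at least once.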
D: 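Enzyme assay of histidyl-tRNA synthetase; the read-out is not stated. Target: Histidine-tRNA ligase, Trypanosoma cruzi CL Brener (UniProt Q4DA54). Concentration: 30 µM. Higher reads as stronger inhibition (inferred: compounds with an IC50 in retests scored well above the rest). About 69,000 compounds were tested under these conditions; 0.045% (about 31) showed 50% or more at least once.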

compound | A | B | C | D
O=c1[nH]c(CCN2CCCCC2Cn2cccn2)nc2ccccc12 (stereo unspecified) | -9.527% | -5% | 0.3234% | 2.305%
COc1ccc(Oc2ccc(CNC(=O)C3CCS(=O)(=O)C3)cn2)cc1 (stereo unspecified) | -3.789% | -3.667% | 6.211% | 2.062%
Cc1nnc(NC(=O)N2CCCN(C3CCCC3)CC2)s1 | 1.112% | -5.446% | 3.563% | 10.84%
CCN1CCO[C@@H]2CN(C(=O)c3cocn3)C[C@@H]2C1 | -2.322% | -9.268% | -1.792% | 2.941%
Cc1cc2nc(CO[C@H]3CN(C(=O)C4CC4)C[C@H]3F)[nH]c2cc1C | 1.797% | 9.051% | -5.549% | -4.348%
CC(C)c1sc(Br)nc1C(=O)NCc1cccnc1 | 25.28% | 3.222% | -2.274% | 3.125%
CO[C@@H](C(=O)NC1CCOCC1)c1ccccc1 | -16.94% | -6.818% | 1.386% | -0.5405%
CCN1C(=O)C2(CCOCC2)c2cc(NC(=O)c3cccn3C)ccc21 | 6.316% | -3.752% | 3.869% | 3.96%
CC[C@H]1CN2CC[C@H]1C[C@@H]2CNC(=O)Nc1ccccc1 | -28.08% | -6.998% | 7.987% | 12.87%
COc1ccc(NCC(=O)NCC(=O)N2CCCC2)c(C(F)(F)F)c1 | -3.535% | 1.332% | 1.724% | 3.96%
O=C(NCCCn1ccnc1)N1CCCC1c1ccsc1 (stereo unspecified) | - | 2.368% | -0.9303% | 3.812%
CCOc1ccc(CCCC(=O)N2CC[C@H](NC(C)=O)C2)cc1C | -19.11% | 2.309% | 9.148% | 4.95%
Cc1nn(C)c(N2CCOCC2)c1CNC1CCN(C(C)(C)C)CC1 | -36.04% | 0.5141% | 12.12% | 6.767%
Cc1nc(CN(C)C2CCN(CC3CCCCC3)C2)no1 (stereo unspecified) | -15% | 12.82% | 2.018% | 1.149%
COCc1nc(C(=O)N2CCCCC2Cn2cc(C)cn2)cs1 (stereo unspecified) | -18.98% | 5.897% | -3.853% | 2.642%
Cc1cnc(C(=O)N2CC[C@H]3C[C@@H](c4nc(C)cs4)O[C@@H]3C2)cn1 | -22.72% | 13.68% | -1.098% | -2.151%
Cc1ccc(CNC2CCc3[nH]c(=O)ccc3C2)cc1C (stereo unspecified) | -6.075% | -10.62% | -0.0463% | 1.869%
COCC(=O)NCC[C@H]1CC(C)(C)Oc2ccccc21 | 12.67% | 3.253% | 2.589% | 7.91%
CCN(Cc1ccc2c(c1)OCCO2)C(=O)NC(C)Cn1cccn1 (stereo unspecified) | -5.713% | -4.318% | -0.1547% | 8.646%
CN(C)c1cnn(CC(=O)N2Cc3ccccc3C2)c(=O)c1 | 13.94% | 0.1248% | 0.3421% | -1.02%
Cc1ccc(C(=O)N2CCC3(CC2)CN(CCN(C)C)C(=O)O3)c(F)c1 | -0.4925% | 10.63% | -5.847% | 0%
CN(C)C(=O)N1Cc2ccccc2C2(CCN(C3CCOCC3)CC2)C1 | -21.45% | 3.562% | 5.529% | 3.883%
NS(=O)(=O)CCNC(=O)c1ccc(-c2ccc(F)cc2)cc1F | 36.9% | -2.273% | 4.202% | 0.8368%
CN(C)S(=O)(=O)N1C[C@H]2C[C@H](C(=O)Nc3cccnc3)[C@@H](C1)O2 | -3.365% | 3% | -0.6046% | 10.78%
O=C1CC2(CCCCN2C(=O)c2ccncc2)CN1CC1CC1 (stereo unspecified) | -19.95% | -0.4706% | 2.808% | 2.404%
COc1cc(Cl)ccc1C(=O)NCC(=O)Nc1nccs1 | -32.25% | 0% | 2.614% | 2.02%
CN(CCCc1cc(-c2ccccc2)no1)S(C)(=O)=O | 0.2069% | 6.6% | -3.198% | 0.2915%
COc1ccccc1OC1CCN(Cc2cccnc2)CC1 | -26.88% | 3.065% | 5.634% | -2.424%
Cc1ccc(N2CCC(c3cc(Cc4ccccc4)n[nH]3)CC2)nn1 | -1.014% | 8.428% | 5.019% | 4.464%
Cc1ccc(S(=O)(=O)N2C[C@H]3C[C@H](NC(=O)c4ccccn4)[C@H]3C2)cc1 | - | 6.568% | -4.967% | 5.243%
CN(C)CCNC(=O)CCn1ncc2c(Cl)cccc21 | 2.481% | 4.85% | 1.737% | 6.087%
c1cnnc(N[C@@H]2CC[C@@H]3CN(Cc4ccc5cc[nH]c5c4)C[C@@H]32)c1 | -9.224% | 9.589% | 1.385% | 8.286%
CN(C)C(=O)C1CN(Cc2ccsc2)Cc2ccnn2C1 (stereo unspecified) | -35.32% | -2.326% | 1.387% | 3.226%
Cc1ccc(CN2CC[C@@H]3[C@@H](CO[C@H]3CN(C)C)C2)o1 | 4.802% | 3.202% | 4.891% | 2.062%
Cc1cnn(CC(C)NCc2ccc(OCc3cccnc3)cc2)c1 (stereo unspecified) | -19.2% | 7.761% | 1.729% | 8.451%
COCCN1C(=O)[C@H]2CC[C@@H]1CN(C(=O)Cc1c(F)cccc1Cl)C2 | 10.91% | 0% | 1.431% | 3.896%
CCc1noc(-c2cccc(C(=O)O)c2)n1 | 11.25% | 0.6135% | 0.6676% | -3.468%
Cc1ccnc(NC(=O)C2CCCO2)c1 (stereo unspecified) | 1.856% | -3.64% | -3.056% | 3.409%
O=C1CC2(CCCCN2C(=O)c2ccccc2)CN1CC1CC1 (stereo unspecified) | -29.09% | 4.706% | 3.781% | 8.173%
CC(=O)N1CCc2c(nc(N(C)C)nc2NCCCn2ccnc2)C1 | -29% | 12.25% | -0.9385% | 2.609%
CC(C)NC[C@@]1(COc2ccccc2)C[C@@H](O)[C@@H](O)C1 | -31.81% | 1.58% | 5.736% | 0.9901%
O=c1[nH]c(NC2CCCC2)nc2nccc(-c3ccco3)c12 | 52.13% | 1.023% | 4.235% | 5.051%
N#Cc1cccnc1NCCC1CCN(CC(F)(F)F)CC1 | -26% | 2.114% | 4.697% | 4.902%
CS(=O)(=O)NC[C@]12COC[C@H]1CN(C(=O)C1CC=CC1)C2 | -9.21% | -1.235% | 2.04% | -24.34%
CCNC(=O)N(CCCO)C1CCCc2ccccc21 (stereo unspecified) | -2.514% | 0.4132% | 3.637% | 5%
CCC1(O)CCCN(c2ncnc3c2c(C)nn3C)C1 (stereo unspecified) | -13.72% | 1.515% | 8.852% | 5.6%
CCNC(=O)[C@@H]1C[C@H](N)CN1C(=O)CCc1ccccc1Cl | -25.75% | 0% | 2.469% | 2.235%
CC(C)Oc1ncccc1CNC(=O)N1CCSCC1 | -14.45% | 3.571% | 0.6591% | 7.602%
CC(C(=O)NCc1ccc(N2CCCC2)nc1)n1cncn1 (stereo unspecified) | -0.3363% | 11.18% | -1.41% | 7.558%
Cc1nc(C)n(CC2CCCCN2CC(=O)Nc2cccnc2)n1 (stereo unspecified) | -8.419% | 3.797% | 7.047% | 3.252%
Cc1ccc(CN2CC[C@@H]3CN(S(C)(=O)=O)CCO[C@@H]3C2)o1 | -7.301% | 12.05% | -1.237% | -4.301%
Cc1ccc(-n2nnc(C(=O)NCC3(CO)CC3)c2C2CC2)cc1 | -9.939% | -0.3831% | 0.1148% | 1.734%
CNc1nc(C(=O)NCc2cccnc2N(C)C2CCCCC2)cs1 | -33.9% | 1.585% | 1.905% | 9.036%

For reference, 3 entries once more:

For CCN(Cc1ccc2c(c1)OCCO2)C(=O)NC(C)Cn1cccn1 (stereo unspecified) the result was A: -5.713%; B: -4.318%; C: -0.1547%; D: 8.646%.
For Cc1cnc(C(=O)N2CC[C@H]3C[C@@H](c4nc(C)cs4)O[C@@H]3C2)cn1 the result was A: -22.72%; B: 13.68%; C: -1.098%; D: -2.151%.
For COc1ccc(NCC(=O)NCC(=O)N2CCCC2)c(C(F)(F)F)c1 the result was A: -3.535%; B: 1.332%; C: 1.724%; D: 3.96%.

The values are deposited in ChEMBL (CHEMBL3988442, “University of Dundee, Small-Polar-MMV Screening Library” (2021)).